No constants are given. Whether binding was seen depends on the method and setting. In cells and extracts the contact can be indirect. Some entries that bind do so weakly or less than the wild type.
Target: FLAG-tagged SOX9, human (human) (UniProt P48436)
Test: co-IP; lysate of HeLa cells transfected with FLAG-SOX9 (or empty vector, or untransfected) in 2 mM Tris pH 7.6, 1% Triton X-100, 1 mM EDTA, 150 mM NaCl; anti-FLAG antibody or anti-mouse IgG control on protein G beads, 4°C, 1 hour; blot with anti-EWS

By UniProt entry, the sequences of proteins in these tests, tags left out.
UniProt P48436: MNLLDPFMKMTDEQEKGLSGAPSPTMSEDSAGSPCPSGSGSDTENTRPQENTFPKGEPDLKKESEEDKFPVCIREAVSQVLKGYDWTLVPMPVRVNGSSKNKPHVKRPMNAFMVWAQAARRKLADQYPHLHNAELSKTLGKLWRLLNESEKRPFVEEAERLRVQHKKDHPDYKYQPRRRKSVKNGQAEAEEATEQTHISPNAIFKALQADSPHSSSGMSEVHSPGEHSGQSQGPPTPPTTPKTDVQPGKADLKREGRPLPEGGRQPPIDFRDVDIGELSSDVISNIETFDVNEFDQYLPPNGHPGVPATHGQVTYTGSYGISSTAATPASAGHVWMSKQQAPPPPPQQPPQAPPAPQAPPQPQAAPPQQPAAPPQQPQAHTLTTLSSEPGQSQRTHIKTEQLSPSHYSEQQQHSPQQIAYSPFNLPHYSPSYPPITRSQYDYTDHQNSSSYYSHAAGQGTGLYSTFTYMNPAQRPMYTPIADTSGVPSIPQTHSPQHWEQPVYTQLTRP
UniProt Q01844: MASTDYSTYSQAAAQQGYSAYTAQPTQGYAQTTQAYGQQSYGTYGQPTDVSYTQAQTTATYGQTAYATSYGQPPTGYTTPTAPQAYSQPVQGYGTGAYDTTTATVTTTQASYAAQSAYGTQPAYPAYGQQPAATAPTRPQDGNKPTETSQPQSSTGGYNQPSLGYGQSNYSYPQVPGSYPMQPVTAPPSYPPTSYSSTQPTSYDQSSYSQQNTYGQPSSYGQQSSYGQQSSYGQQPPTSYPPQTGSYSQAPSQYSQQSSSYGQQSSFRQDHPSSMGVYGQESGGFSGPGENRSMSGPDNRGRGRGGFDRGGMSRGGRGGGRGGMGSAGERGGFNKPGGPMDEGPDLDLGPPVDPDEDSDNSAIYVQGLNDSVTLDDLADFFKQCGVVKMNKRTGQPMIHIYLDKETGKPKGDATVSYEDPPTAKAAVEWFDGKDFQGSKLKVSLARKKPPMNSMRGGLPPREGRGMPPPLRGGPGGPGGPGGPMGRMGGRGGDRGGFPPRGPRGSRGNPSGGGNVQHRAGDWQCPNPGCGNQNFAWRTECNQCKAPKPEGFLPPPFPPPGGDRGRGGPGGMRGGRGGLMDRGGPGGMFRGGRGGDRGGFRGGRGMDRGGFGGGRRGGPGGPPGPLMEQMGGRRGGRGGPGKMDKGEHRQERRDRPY

binding: binds
Substance: EWS (EWSR1, Ewing sarcoma breakpoint region 1), human (from UniProt Q01844 1-656)
